The source of these data is paper doi:10.1101/771857.

This test addresses T1, Vti1b-mCitrine (human) (UniProt Q9UEU0).
T1 sequence: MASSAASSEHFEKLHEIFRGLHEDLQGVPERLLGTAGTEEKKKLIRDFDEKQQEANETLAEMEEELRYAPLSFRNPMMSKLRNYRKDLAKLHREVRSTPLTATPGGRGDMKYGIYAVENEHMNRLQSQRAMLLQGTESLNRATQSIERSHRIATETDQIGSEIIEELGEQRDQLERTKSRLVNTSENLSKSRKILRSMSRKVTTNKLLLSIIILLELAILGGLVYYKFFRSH
Nature of the test: co-IP.

No constants are given. Whether binding was seen depends on the method and setting. In cells and extracts the contact can be indirect. Binding calls can cover weak binding; strength is not graded here.

For His6-Ii Δ27 (domain or fragment), the binding result was “binds”. Under His6-Ii p33 wt stands “binds”.
